# Test results: PubChem BioAssay AID1259354 (Paczesny and Yang Labs, IUPUI and University of Michigan, 2018)
# Protein sequences, listed by entry. Tags and fused reporters are not part of them. Lines headed by an entry give the natural chain unless they say otherwise; changes in a name come on top.
# UniProt Q01638: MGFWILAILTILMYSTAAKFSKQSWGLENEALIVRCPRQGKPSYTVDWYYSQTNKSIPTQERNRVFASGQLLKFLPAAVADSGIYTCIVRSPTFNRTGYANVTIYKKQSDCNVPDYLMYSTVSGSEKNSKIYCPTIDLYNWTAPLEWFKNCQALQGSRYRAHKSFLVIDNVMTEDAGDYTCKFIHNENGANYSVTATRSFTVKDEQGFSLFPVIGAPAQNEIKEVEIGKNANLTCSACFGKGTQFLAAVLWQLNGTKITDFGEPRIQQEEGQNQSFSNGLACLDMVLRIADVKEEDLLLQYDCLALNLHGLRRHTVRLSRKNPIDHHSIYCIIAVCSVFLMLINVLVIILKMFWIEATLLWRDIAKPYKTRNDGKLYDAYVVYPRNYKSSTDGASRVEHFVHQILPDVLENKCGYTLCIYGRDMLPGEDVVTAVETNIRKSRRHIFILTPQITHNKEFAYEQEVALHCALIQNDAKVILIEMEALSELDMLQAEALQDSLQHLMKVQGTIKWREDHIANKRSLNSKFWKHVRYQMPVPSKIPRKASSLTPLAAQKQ
# In all, about 78,000 compounds went through this assay and about 1,800 (2.3%) were called active. Inconclusive means that the source gave no clear call. Such entries were picked first, then a sample of the others. Rule as the data show it: active = inhibition above about 30%; inconclusive = mostly about 10% to 28%; inactive = weaker than that. Some structures have more than one record in an assay (separate samples or runs), and their calls can disagree.
# Target: Interleukin-1 receptor-like 1 (Homo sapiens) (UniProt Q01638)
# Test: blocks human ST2 binding to IL-33, primary screen, biochemical, AlphaLISA (AID 1259354)
# Conditions: AlphaLISA ST2-Fc/biotin-IL-33 interaction, 1 h; at 17 µM, hits give high values
row,SMILES,inhibition
1,COc1cccc2c(=O)c(CN3CCCCC3)c(C)[nH]c12,inconclusive: 11%
2,Cc1cc2c(Nc3cccc(Cl)c3C)ncnc2s1,inactive
3,Cc1onc(-c2ccccc2Cl)c1C(=O)Nc1c2c(nn1-c1ccccc1)CSC2,inconclusive: 14%
4,COC(=O)c1ccccc1C(=O)N1CCCN(C)C2(CCN(C)CC2)C1,inconclusive: 17%
5,CC1CCN(c2nc(-c3ccc(C(C)C)cc3)c3c(N)[nH]nc3n2)CC1,inactive
6,Cc1ccc(Cl)cc1N1C(=O)C2C3C=CC(C3)C2C1=O (stereo not given),inconclusive: 13%
7,Cc1ccc(NC(=O)CSc2nc3nc(C)cc(C)c3c(=O)[nH]2)cc1,inconclusive: 12%
8,Cc1c(C(=O)Nc2ccccc2)cccc1[N+](=O)[O-],inconclusive: 11%
9,O=C(CSc1nc2c(c(=O)n1-c1ccc(Cl)cc1)SCC2)Nc1ccccc1,inactive
10,CCOC(=O)c1c(NC(=O)c2ccc(Cl)c(Cl)c2)sc(C(C)=O)c1C,inconclusive: 13%
11,Cc1c(Cl)cccc1N1C(=O)C(N2C(=O)c3cccc([N+](=O)[O-])c3C2=O)C1c1cccs1 (stereo not given),inconclusive: 15%
12,CC(=O)Nc1cc(C)nc2ccccc12,inconclusive: 10%
13,CN(C)c1ccc(C2C(C#N)=C(N)Oc3n[nH]c(-c4ccccc4)c32)cc1 (stereo not given),inconclusive: 12%
14,CCOc1ccc(NC(=O)c2c(-c3ccccc3)noc2C)c([N+](=O)[O-])c1,active: 38%
15,CC1=C[C@@H](CNCCN2CCNC2=O)[C@H](C(C)C)C[C@H]1Cc1nnc(-c2cccnc2)o1,inconclusive: 20%
16,CCc1nc2oc(C(=O)c3ccccc3)c(N)c2c2c1COC(C)(C)C2,active: 40%
17,Cc1cc(C(=O)N2CCC(O)(CN(C)C)C2)sc1-c1ccccc1 (stereo not given),inconclusive: 12%
18,Cn1cccc1C(=O)N1CCCC(CCc2ccccc2C(F)(F)F)C1 (stereo not given),inconclusive: 17%
19,Cc1cccc(C)c1NC(=O)CN(C)S(=O)(=O)c1ccc(Cl)cc1,inactive
20,CCOC(=O)N1CCN(Cc2nc(-c3ccc(C(F)(F)F)cc3)oc2C)CC1,inconclusive: 11%
21,CN1CCN(C(=O)CC[C@H]2CNC(=O)[C@@H]3[C@@H](CCN3CC(C)(C)C)N2C)CC1,inconclusive: 19%
22,O=C(NCc1cnn(Cc2ccccc2)c1)c1cn(C2CCCCCC2)nn1,inactive
23,O=C(O)c1ccc(N=Cc2nc(-c3ccc(Cl)cc3)oc2O)cc1,inconclusive: 19%
24,O=C(Cn1c(=O)[nH]c2ccsc2c1=O)N1CC=C(c2ccccc2)CC1,inconclusive: 18%
25,N#C/C(=C\c1ccccc1[N+](=O)[O-])c1nc(-c2ccc(Cl)cc2)cs1,active: 31%

# Laid out differently: entries from further up
row	SMILES	inhibition
10	CCOC(=O)c1c(NC(=O)c2ccc(Cl)c(Cl)c2)sc(C(C)=O)c1C	inconclusive: 13%
11	Cc1c(Cl)cccc1N1C(=O)C(N2C(=O)c3cccc([N+](=O)[O-])c3C2=O)C1c1cccs1 (stereo not given)	inconclusive: 15%
